# PubChem BioAssay (EPA / NIEHS)
# Amino acid sequences for entries named in this document (tags omitted). A change or cut given only in a name is not applied to a line headed by its entry.
# UniProt Q9UNQ0: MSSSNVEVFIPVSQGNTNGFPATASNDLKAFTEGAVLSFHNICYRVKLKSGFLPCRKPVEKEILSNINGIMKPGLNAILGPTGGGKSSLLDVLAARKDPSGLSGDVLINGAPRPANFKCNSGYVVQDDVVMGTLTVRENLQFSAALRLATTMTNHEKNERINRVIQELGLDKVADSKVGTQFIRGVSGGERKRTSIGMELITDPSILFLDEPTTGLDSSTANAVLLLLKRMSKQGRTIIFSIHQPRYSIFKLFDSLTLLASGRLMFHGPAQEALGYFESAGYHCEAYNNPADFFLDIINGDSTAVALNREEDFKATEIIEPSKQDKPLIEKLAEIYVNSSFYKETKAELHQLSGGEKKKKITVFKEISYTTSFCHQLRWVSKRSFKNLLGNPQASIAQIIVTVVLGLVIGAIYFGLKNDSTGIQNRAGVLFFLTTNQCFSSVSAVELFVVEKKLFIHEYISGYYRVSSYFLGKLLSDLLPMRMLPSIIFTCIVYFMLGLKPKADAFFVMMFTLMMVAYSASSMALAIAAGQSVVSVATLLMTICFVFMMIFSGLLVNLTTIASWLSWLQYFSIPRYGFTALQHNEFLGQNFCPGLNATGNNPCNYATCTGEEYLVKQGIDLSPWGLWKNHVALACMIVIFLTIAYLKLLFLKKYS
# Values joined by “and” are separate entries in the source; they are usually repeats but may differ in a detail not shown here. Equal entries are not always repeated. Inconclusive means that the source gave no clear call. Such entries were picked first, then a sample of the others. A potency beside an inconclusive call is a rough fit, not a confirmed value. The source holds several records for some structures; these can differ, active in one and inactive in another. Active and inactive are the calls of the source. Rule for the calls: active = hit-call score of the fitted dose curve at least 0.9, where 1 is the maximum; inconclusive = response in the unintended direction; inactive = score below 0.9.
# Legend:
# [1] = Tanguay_ZF_120hpf_PE_legacy: (Legacy) Oregon State University Tanguay Lab 120 Hour Post-fertilization zebrafish Assay for Pericardial Edema (AID 2283640);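 for AC50: potency for increased incidence of pericardial edema versus DMSO baseline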
# Summary of the method: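 Scoring was binary, by brightfield microscopy at 120 hpf, and skipped where mortality occurred. Wild-type embryos were kept under sealed, foil-covered static exposure at 28C in 0.64% (vol/vol) DMSO.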
# [2] = Tanguay_ZF_120hpf_SWIM_legacy: (Legacy) Oregon State University Tanguay Lab 120 Hour Post-fertilization zebrafish Assay for Swim Bladder Malformation (AID 2283654);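 note: swim bladder malformation in each larva scored yes or no under brightfield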
# Summary of the method: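 Embryos lacking chorions were exposed individually and statically to test chemical from 6 to 120 hpf at 28C, with 0.64% DMSO as vehicle. At 120 hpf, swim bladder malformation was recorded as present or absent by brightfield microscopy.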
# [3] = Tanguay_ZF_120hpf_NC_legacy: (Legacy) Oregon State University Tanguay Lab 120 Hour Post-fertilization zebrafish Assay for Notochord and Tail Malformation (AID 2283656)
# Summary of the method: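 Dechorionated Tropical 5D wild-type zebrafish embryos, one per well from 6 hpf, statically exposed to 120 hpf at 28C in 0.64% DMSO final. Notochord distortion scored present/absent by brightfield; dead embryos excluded.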
# [4] = Tanguay_ZF_120hpf_OTIC_legacy: (Legacy) Oregon State University Tanguay Lab 120 Hour Post-fertilization zebrafish Assay for Otic Vesicle Malformation (AID 2283639)
# Summary of the method: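 Embryos from 5D wild-type adults exposed in plates; DMSO 0.64% v/v final. Sealed, light-protected, 28C, static to 120 hpf. Otic vesicle malformation recorded as binary endpoint; gain-of-signal fitted vs DMSO.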
# [5] = Tanguay_ZF_120hpf_SOMI_legacy: (Legacy) Oregon State University Tanguay Lab 120 Hour Post-fertilization zebrafish Assay for Somite Malformation (AID 2283647)
# Summary of the method: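 Binary somite-defect scoring at 120 hpf, omitted for embryos that died, in wild-type (Tropical 5D) zebrafish with chorion removed by pronase at 4 hpf; static exposure began 6 hpf, single embryos per well, 28C, 0.64% DMSO; fitted positive versus DMSO.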
# [6] = Tanguay_ZF_120hpf_CFIN_legacy: (Legacy) Oregon State University Tanguay Lab 120 Hour Post-fertilization zebrafish Assay for Caudal Fin Malformation (AID 2283649)
# Summary of the method: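 Binary brightfield scoring of caudal fin defects at 120 hpf after static, light-shielded exposure at 28C from 6 hpf. Tropical 5D embryos, chorion removed with pronase at 4 hpf, final DMSO 0.64%.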
# [7] = Tanguay_ZF_120hpf_TRUN_legacy: (Legacy) Oregon State University Tanguay Lab 120 Hour Post-fertilization zebrafish Assay for Truncated Body (AID 2283655)
# Summary of the method: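 Binary presence/absence of truncated body is recorded at 120 hpf by brightfield, with non-mortality endpoints skipped after death. Exposure is static from 6 hpf in sealed dark plates at 28C, using dechorionated wild-type zebrafish, 0.64% DMSO.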
# [8] = Tanguay_ZF_120hpf_BRAI_legacy: (Legacy) Oregon State University Tanguay Lab 120 Hour Post-fertilization zebrafish Assay for Brain Malformation (AID 2283641)
# Summary of the method: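 Binary brightfield scoring of brain malformation at 120 hpf in Tropical 5D larvae held under static exposure at 28C (0.64% v/v DMSO), non-mortality endpoints skipped if dead. Positive control: 5uM trimethyltin chloride; fit versus DMSO.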
# [9] = read-out: Broad substrate specificity ATP-binding cassette transporter ABCG2 (Homo sapiens) (UniProt Q9UNQ0); assay: CLD_ABCG2_6hr: CellzDirect (CLD) Gene Expression Assay for ABC Transporter (ABCG2) at 6 hours (AID 2283660)
# Summary of the method: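 Primary human hepatocytes dosed daily with chemicals at multiple concentrations (0.2% DMSO vehicle), harvested 6 h after dosing. ABCG2 mRNA induction read by quantitative nuclease protection assay (qNPA) chemiluminescence; gain of signal fitted against DMSO baseline.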
# [10] = Tanguay_ZF_120hpf_PFIN_legacy: (Legacy) Oregon State University Tanguay Lab 120 Hour Post-fertilization zebrafish Assay for Pectoral Fin Malformation (AID 2283648);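 note: each larva judged yes or no for fin defect by brightfield with dead larvae skipped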
# Summary of the method: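 5D WT zebrafish; pronase dechorionation 4 hpf; 1 embryo/well at 6 hpf; static exposure to 120 hpf, 28C, sealed, foil-covered; final DMSO 0.64% v/v; 5 uM trimethyltin chloride positive control; fin defect scored yes/no.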
# [11] = read-out: xenobiotic metabolism (CYP1A1), CYP1A1 (gene 1543); assay: CLD_CYP1A1_6hr: CellzDirect (CLD) Gene Expression Assay for xenobiotic metabolism (CYP1A1) at 6 hours (AID 2283661);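 for AC50: potency for transcript induction above DMSO vehicle baseline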
# Summary of the method: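 Primary human hepatocytes from two donors, compound versus 0.2% DMSO vehicle. CYP1A1 mRNA measured 6 h after dosing by quantitative nuclease protection assay with chemiluminescent read-out; induction fitted relative to DMSO, cytotoxicity flagged by microscopy.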
# [12] = Tanguay_ZF_120hpf_PIG_legacy: (Legacy) Oregon State University Tanguay Lab 120 Hour Post-fertilization zebrafish Assay for Pigmentation Malformation (AID 2283650)
# Summary of the method: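 Pronase dechorionation at 4 hpf; embryos plated at 6 hpf, one per well; static exposure, sealed and foil-covered, 28C, to 120 hpf; pigmentation read by brightfield, binary; DMSO 0.64% baseline, 5uM trimethyltin chloride positive control.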
# [13] = Tanguay_ZF_120hpf_CIRC_legacy: (Legacy) Oregon State University Tanguay Lab 120 Hour Post-fertilization zebrafish Assay for Circulatory Malformation (AID 2283651)
# Summary of the method: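 Read-out: presence or absence of circulatory malformation at 120 hpf, scored by brightfield microscopy, fitted in the gain-of-signal direction against DMSO baseline. Wild-type 5D larvae were exposed from 6 hpf after enzymatic chorion removal.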
# [14] = read-out: ABC Transporter (ABCB1), ABCB1 (gene 5243); assay: CLD_ABCB1_6hr: CellzDirect (CLD) Gene Expression Assay for ABC Transporter (ABCB1) at 6 hours (AID 2283659);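 for outcome: hits raise ABCB1 transcript above the DMSO vehicle baseline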
# Summary of the method: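 Primary human hepatocytes (two donor preparations) dosed daily for two days with chemicals at multiple concentrations, 0.2% DMSO vehicle; harvested 6 h post-dose. ABCB1 mRNA induction quantified by qNPA chemiluminescence; gain-of-signal fitted versus DMSO.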
# [15] = test system: Thyroperoxidase (TPO), gene 54314; assay: CCTE_Simmons_AUR_rTPO: CCTE's Amplex UltraRed Assay for Thyroperoxidase (TPO) Inhibition, Simmons Lab (AID 2283662);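 note: potency for loss of signal meaning inhibition of peroxidase activity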
# Summary of the method: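 Cell-free peroxidase activity assay using rat thyroid gland microsomes with excess H2O2 (300 uM) and 25 uM Amplex UltraRed. Compounds tested from 5 nM to 87.5 uM; fluorescence measured after 30 min at 37C, analysed relative to DMSO baseline.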
smiles,measurement,setting,value
c1cc[n+]2c(c1)-c1cccc[n+]1CC2,AC50,[1],inconclusive: 101 µM
same,AC50,[2],inconclusive: 101 µM
same,outcome,[3],inactive
ClC1=C(Cl)C2(Cl)C3C(Cl)C=CC3C1(Cl)C2(Cl)Cl (centres undefined),outcome,[4],inactive
same,AC50,[5],inconclusive: 19.8 µM
same,AC50,[6],inconclusive: 94.2 µM
same,AC50,[7],inconclusive: 185 µM
same,AC50,[3],inconclusive: 114 µM
CC1(C)C(C=C(Cl)Cl)C1C(=O)OC(C#N)c1ccc(F)c(Oc2ccccc2)c1 (centres undefined),AC50,[4],inconclusive: 61.7 µM
same,AC50,[5],inconclusive: 10.1 µM
same,outcome,[6],inactive
same,AC50,[3],inconclusive: 0.00548 µM
O=S(=O)(O)C(F)(F)C(F)(F)C(F)(F)C(F)(F)C(F)(F)C(F)(F)F,AC50,[8],active: 14.9 µM
same,AC50,[6],inconclusive: 202 µM
CON(C)C(=O)Nc1ccc(Cl)c(Cl)c1,outcome,[4],inactive
same,AC50,[9],inconclusive: 1.9 µM
O=P1(N(CCCl)CCCl)NCCCO1 (centres undefined),outcome,[8],inactive
CO/C=C(/C(=O)OC)c1ccccc1Oc1cc(Oc2ccccc2C#N)ncn1,AC50,[1],active: 5.47 µM
same,outcome,[1],inactive
same,AC50,[8],inconclusive: 1.4 µM and inconclusive: 44.8 µM
same,outcome,[10],inactive
same,AC50,[7],inconclusive: 20.1 µM and inconclusive: 25.4 µM
same,AC50,[11],inconclusive: 20 µM
OCCOCCO,AC50,[8],inconclusive: 4.53 µM
same,outcome,[12],inactive
same,AC50,[13],inconclusive: 29.8 µM
ClC1=C(Cl)[C@]2(Cl)[C@H]3[C@H]([C@@H]4C=C[C@H]3C4)[C@@]1(Cl)C2(Cl)Cl,outcome,[8],inactive
CC(C)N1C(=O)N(c2ccccc2)CSC1=NC(C)(C)C,AC50,[8],inconclusive: 202 µM
same,outcome,[5],inactive
same,AC50,[13],inconclusive: 7.5 µM
same,outcome,[14],inactive
CCCN(CCC)N=O,AC50,[4],inconclusive: 62.5 µM
same,AC50,[8],inconclusive: 200 µM
same,outcome,[3],inactive
CCC(C)(NC(=O)c1cc(Cl)c(C)c(Cl)c1)C(=O)CCl (centres undefined),outcome,[4],inactive
same,AC50,[5],inconclusive: 28.9 µM
same,AC50,[12],inconclusive: 50 µM
same,outcome,[9],inactive
same,outcome,[11],inactive
ClC(Cl)=C(c1ccc(Cl)cc1)c1ccc(Cl)cc1,AC50,[4],inconclusive: 66.8 µM
same,AC50,[12],inconclusive: 7.51 µM
COc1ccc(C(c2ccc(OC)cc2)C(Cl)(Cl)Cl)cc1,AC50,[4],inconclusive: 201 µM
same,AC50,[12],inconclusive: 2.31 µM
same,outcome,[7],inactive
same,AC50,[3],inconclusive: 11.5 µM
same,AC50,[9],inconclusive: 20 µM
Clc1cccc(Cl)c1,AC50,[8],inconclusive: 140 µM
same,AC50,[6],inconclusive: 2.11 µM
same,AC50,[12],inconclusive: 34 µM
same,AC50,[3],inconclusive: 200 µM
C=CCOC(=O)C(C)(C)OC(=O)c1cc(-n2c(=O)cc(C(F)(F)F)n(C)c2=O)ccc1Cl,AC50,[4],inconclusive: 2.67 µM
same,AC50,[2],inconclusive: 106 µM
same,outcome,[7],inactive
same,AC50,[3],inconclusive: 15.3 µM
Nc1ccc2ccccc2c1,AC50,[8],active: 202 µM
same,outcome,[10],inactive
same,AC50,[12],active: 46.5 µM
ClC1=C(Cl)[C@]2(Cl)[C@@H]3[C@@H](Cl)[C@H]4O[C@H]4[C@@H]3C1(Cl)C2(Cl)Cl,outcome,[4],inactive
same,AC50,[6],inconclusive: 50.1 µM
same,AC50,[12],inconclusive: 47.3 µM
same,AC50,[2],inconclusive: 46.9 µM
CCOP(=S)(OCC)SCSP(=S)(OCC)OCC,outcome,[1],inactive
same,AC50,[12],inconclusive: 0.0138 µM
same,outcome,[7],inactive
CCC12COCN1COC2,AC50,[1],inconclusive: 164 µM
same,AC50,[8],inconclusive: 202 µM
same,AC50,[2],inconclusive: 202 µM
CC1(C(=O)Nc2ccc(O)c(Cl)c2Cl)CCCCC1,AC50,[4],inconclusive: 59.5 µM
same,outcome,[8],inactive
same,AC50,[11],inconclusive: 20 µM
CCOc1cccc(C2(N3CCN(c4ccccc4)CC3)CCC(C)CC2)c1 (centres undefined),outcome,[4],inactive
same,outcome,[7],inactive
CNC(=O)Oc1cccc2ccccc12,outcome,[4],inactive
same,AC50,[10],inconclusive: 0.000112 µM
same,AC50,[12],inconclusive: 202 µM
same,AC50,[3],inconclusive: 0.818 µM
same,AC50,[9],inconclusive: 3.97 µM
COc1cc(OC)nc(NC(=O)NS(=O)(=O)c2ncccc2OCC(F)(F)F)n1,outcome,[8],inactive
same,outcome,[6],inactive
same,AC50,[14],inconclusive: 3.97 µM
same,AC50,[9],inconclusive: 20 µM
same,AC50,[11],inconclusive: 0.0004 µM
Oc1c(Cl)c(Cl)c(Cl)c(Cl)c1Cl,outcome,[1],inactive
O=C(NC(=O)c1cc(F)c(F)cc1Cl)Nc1cc(F)ccc1N1CCC(C(=O)O)CC1,AC50,[8],inconclusive: 2.79 µM
[N-]=[N+]=[N-],AC50,[1],inconclusive: 70.2 µM
same,outcome,[8],inactive
same,outcome,[6],inactive
same,AC50,[7],inconclusive: 202 µM
same,AC50,[15],inconclusive: 9.49 µM
c1cc2c3c(cccc3c1)CC2,outcome,[1],inactive
same,outcome,[5],inactive
same,AC50,[7],inconclusive: 75.8 µM
Cc1ccc(O)cc1C,AC50,[4],inconclusive: 1.1 µM
same,outcome,[6],inactive
same,outcome,[12],inactive
NS(=O)(=O)C(F)(F)C(F)(F)C(F)(F)C(F)(F)C(F)(F)C(F)(F)C(F)(F)C(F)(F)F,outcome,[4],inactive
same,AC50,[6],active: 4.88 µM
same,AC50,[2],inconclusive: 0.0729 µM
same,AC50,[3],inconclusive: 20.2 µM

# 21 entries from above, as tab-separated lines:
smiles	measurement	setting	value
COc1cc(OC)nc(NC(=O)NS(=O)(=O)c2ncccc2OCC(F)(F)F)n1	outcome	[6]	inactive
same	AC50	[14]	inconclusive: 3.97 µM
same	AC50	[9]	inconclusive: 20 µM
same	AC50	[11]	inconclusive: 0.0004 µM
Oc1c(Cl)c(Cl)c(Cl)c(Cl)c1Cl	outcome	[1]	inactive
O=C(NC(=O)c1cc(F)c(F)cc1Cl)Nc1cc(F)ccc1N1CCC(C(=O)O)CC1	AC50	[8]	inconclusive: 2.79 µM
[N-]=[N+]=[N-]	AC50	[1]	inconclusive: 70.2 µM
same	outcome	[8]	inactive
same	outcome	[6]	inactive
same	AC50	[7]	inconclusive: 202 µM
same	AC50	[15]	inconclusive: 9.49 µM
c1cc2c3c(cccc3c1)CC2	outcome	[1]	inactive
same	outcome	[5]	inactive
same	AC50	[7]	inconclusive: 75.8 µM
Cc1ccc(O)cc1C	AC50	[4]	inconclusive: 1.1 µM
same	outcome	[6]	inactive
same	outcome	[12]	inactive
NS(=O)(=O)C(F)(F)C(F)(F)C(F)(F)C(F)(F)C(F)(F)C(F)(F)C(F)(F)C(F)(F)F	outcome	[4]	inactive
same	AC50	[6]	active: 4.88 µM
same	AC50	[2]	inconclusive: 0.0729 µM
same	AC50	[3]	inconclusive: 20.2 µM
